Laboratory results reported in the supplement of paper PMC12067093, “Discovery and optimisation of a covalent ligand for TRIM25 and its application to targeted protein ubiquitination” (Chemical Science, 2025).
Some of the results follow.

Compound: Cc1cc(ccc1-c1ccccc1)C(=O)N1CCCN(CC1)C(=O)CCl [compound 10]
Assay: probe-labelled cysteine peptide fold change vs DMSO (competition) (log2 fold change); higher = less target engagement (more negative = stronger competition)
Conditions: THP-1, incubation time: 4 h
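Note: competitive profiling in live THP-1 cells: cysteine peptides tagged with an iodoacetamide desthiobiotin (IA-DTB) probe, intensity after compound treatment relative to DMSO-treated cells.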

| Target | probe-labelled cysteine peptide fold change (10 µM) | probe-labelled cysteine peptide fold change (50 µM) |
| --- | --- | --- |
| DOCK2_Q92608_1655_QMSIISLASMNSDCSTPSKPTSESFDLELASPK (UniProt Q92608) | -0.303 | -0.0629 |
| DTL_Q9NZJ0_544_SSQAEACSESR (UniProt Q9NZJ0) | -0.106 | -0.155 |
| DTX3L_Q8TDB6_577_CKHEFCAPCINK (UniProt Q8TDB6) | -0.216 | -0.472 |
| DOCK11_Q5JSL3_1190_DTLYSCAAMPNSASR (UniProt Q5JSL3) | -0.449 | -1.02 |
| DTYMK_P23919_163_CFHQLMK (UniProt P23919) | -0.135 | 0.888 |
| DPH5_Q9H2P9_219_GEEPAVTEETLCVGLAR (UniProt Q9H2P9) | -0.0883 | 0.375 |
| DUS3L_Q96G46_171+177_CPYGVTCR (UniProt Q96G46) | -0.295 | -0.294 |
| DNPH1_O43598_26_PALYFCGSIR (UniProt O43598) | -0.145 | 0.00578 |
| DOP1B_Q9Y3R5_1040_EACAVPEPQESGSEEHLPLSQFTTVDR (UniProt Q9Y3R5) | -0.00453 | -0.16 |
| DOCK2_Q92608_1117_KATIPIFFDMMLCEYQR (UniProt Q92608) | 0.161 | -0.102 |
| DPYSL2_Q16555_439_THNSSLEYNIFEGMECR (UniProt Q16555) | 0.109 | 0.11 |
| EAF2_Q96CJ1_29_CAFHTVR (UniProt Q96CJ1) | 0.161 | 0.245 |
| DPP8_Q6V1X1_611_LSSPEDDPTCK (UniProt Q6V1X1) | 0.0532 | 0.0401 |
| DNMT3A_Q9Y6K1_911_EYFACV (UniProt Q9Y6K1) | -0.244 | -0.0631 |
| DTD1_Q8TEA8_84_QYEILCVSQFTLQCVLK (UniProt Q8TEA8) | 0.228 | 0.833 |
| DOCK2_Q92608_1258_WSDEQCASQVMQTGQQHPQTHR (UniProt Q92608) | -0.134 | 0.167 |
| DOCK8_Q8NF50_259_QAELFALYPSVDEEDAVEIRPVPECPK (UniProt Q8NF50) | -0.0266 | -0.175 |
| DSN1_Q9H410_65_GGNCDLSHQER (UniProt Q9H410) | -0.0435 | -0.00352 |
| DOCK11_Q5JSL3_835_FFHHCQLIQSGSK (UniProt Q5JSL3) | 0.129 | 0.258 |
| E2F4_Q16254_136_NVTEDVQNSCLAYVTHEDICR (UniProt Q16254) | -0.256 | -0.444 |
| DYNLT1_P63172_83_NGAGLHTASSCFWDSSTDGSCTVR (UniProt P63172) | 0.0463 | 0.113 |
| DTX3L_Q8TDB6_41_SSGGGECTVSTQEHEAPGTFR (UniProt Q8TDB6) | 0.0505 | -0.0416 |

Complete entries, quoted from the list. Order of values: probe-labelled cysteine peptide fold change (10 µM) | probe-labelled cysteine peptide fold change (50 µM)
DYNLT1_P63172_83_NGAGLHTASSCFWDSSTDGSCTVR (UniProt P63172) as listed: 0.0463 | 0.113
DNPH1_O43598_26_PALYFCGSIR (UniProt O43598) as listed: -0.145 | 0.00578

(continued)

| Target | probe-labelled cysteine peptide fold change (10 µM) | probe-labelled cysteine peptide fold change (50 µM) |
| --- | --- | --- |
| DUSP11_O75319_199_LIGVHCTHGLNR (UniProt O75319) | 0.081 | -0.107 |
| DYNC1H1_Q14204_2454_CLGSLFSMLHQACR (UniProt Q14204) | -0.1 | 0.00442 |
| DUSP23_Q9BVJ7_67_IPDFCPPAPDQIDR (UniProt Q9BVJ7) | 0.0201 | 0.0861 |
| DRG2_P55039_270_KPNSVVISCGMK (UniProt P55039) | 0.122 | 0.181 |
| DSCR3_O14972_219+221_VETCGCAEGYAR (UniProt O14972) | -0.345 | -2.51 |
| DOK2_O60496_132_QSRPCMEENELYSSAVTVGPHK (UniProt O60496) | -0.225 | -0.254 |
| DNPEP_Q9ULA0_447_EMACTTGVLQTLTLFK (UniProt Q9ULA0) | 0.0598 | 0.144 |
| DOK3_Q7L591_493_KGPAPCDRP (UniProt Q7L591) | -0.0231 | 0.0248 |
| DPP7_Q9UHL4_332+338_LYHSCADPTGCGTGPDAR (UniProt Q9UHL4) | 0.00325 | 0.329 |
| DOCK5_Q9H7D0_1428_QYMQCFTVK (UniProt Q9H7D0) | 0.162 | 0.42 |
| ECH1_Q13011_92_EMVECFNK (UniProt Q13011) | 0.215 | 0.062 |
| ECH1_Q13011_171_PVIAAVHGGCIGGGVDLVTACDIR (UniProt Q13011) | 0.276 | 0.243 |
| DOCK10_Q96BY6_936_CHEEQLDHSVQSYIK (UniProt Q96BY6) | 0.1 | 0.0366 |
| EARS2_Q5JPH6_140_TGAAYPCFCSPQR (UniProt Q5JPH6) | 0.0297 | -0.313 |
| DYNC1H1_Q14204_1977_MLSAVSQQVQCIQEALREHSNPNYDK (UniProt Q14204) | -0.166 | -0.401 |
| DYNC1H1_Q14204_3712_SSLQSQCLNEVLK (UniProt Q14204) | -0.0469 | -0.00646 |
| DTX3L_Q8TDB6_175_VCGDFQDIER (UniProt Q8TDB6) | -0.0317 | -0.386 |
| DOCK6_Q96HP0_510_IDISPAPENPHFCLSPELLHIK (UniProt Q96HP0) | -0.161 | 0.192 |
| DPH5_Q9H2P9_119_VIHNASIMNAVGCCGLQLYK (UniProt Q9H2P9) | 0.0354 | -0.1 |
| DOCK11_Q5JSL3_615_NCQNITVEVEEFVPEMTK (UniProt Q5JSL3) | 0.0993 | 0.205 |
| DOCK8_Q8NF50_939_MSYYCSGSSDAPSSPAAPRPASK (UniProt Q8NF50) | -0.194 | -0.304 |
| DSTN_P60981_163_LGGSLIVAFEGCPV (UniProt P60981) | -0.192 | -0.173 |
